From paper PMC5835843
No constants are given. Whether binding was seen depends on the method and setting. In cells and extracts the contact can be indirect. Some entries that bind do so weakly or less than the wild type.

The chains behind the UniProt entries cited, without tags or fusion partners.
UniProt Q9QZ81: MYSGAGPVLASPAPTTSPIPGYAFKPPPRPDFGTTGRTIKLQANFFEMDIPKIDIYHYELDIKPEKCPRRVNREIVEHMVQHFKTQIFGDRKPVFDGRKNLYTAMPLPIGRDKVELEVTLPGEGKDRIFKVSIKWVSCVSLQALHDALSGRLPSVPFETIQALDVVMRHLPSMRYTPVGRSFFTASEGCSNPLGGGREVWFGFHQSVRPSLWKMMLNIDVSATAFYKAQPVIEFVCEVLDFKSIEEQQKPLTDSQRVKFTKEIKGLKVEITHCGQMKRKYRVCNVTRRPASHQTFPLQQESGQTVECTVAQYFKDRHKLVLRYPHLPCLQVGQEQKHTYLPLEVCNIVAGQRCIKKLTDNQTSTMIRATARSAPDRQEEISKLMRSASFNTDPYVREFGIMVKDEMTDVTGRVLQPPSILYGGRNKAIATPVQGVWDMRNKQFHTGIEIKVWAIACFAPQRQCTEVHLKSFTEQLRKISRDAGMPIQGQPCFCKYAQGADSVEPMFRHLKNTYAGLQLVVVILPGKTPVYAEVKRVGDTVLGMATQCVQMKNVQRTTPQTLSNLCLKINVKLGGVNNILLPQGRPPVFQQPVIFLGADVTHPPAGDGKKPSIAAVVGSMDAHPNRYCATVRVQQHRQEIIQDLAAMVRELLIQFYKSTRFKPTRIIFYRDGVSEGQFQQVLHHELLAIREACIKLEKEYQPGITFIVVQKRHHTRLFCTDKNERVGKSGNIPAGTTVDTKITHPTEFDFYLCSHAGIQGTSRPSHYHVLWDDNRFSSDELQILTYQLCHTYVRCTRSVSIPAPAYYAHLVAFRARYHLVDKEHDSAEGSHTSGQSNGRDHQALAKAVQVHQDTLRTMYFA

Target: T1, TRBP (HIV1‐TAR RNA Binding Protein) (rat (endogenous in primary cortical neurons)) (UniProt Q3SWU0)
T1 sequence: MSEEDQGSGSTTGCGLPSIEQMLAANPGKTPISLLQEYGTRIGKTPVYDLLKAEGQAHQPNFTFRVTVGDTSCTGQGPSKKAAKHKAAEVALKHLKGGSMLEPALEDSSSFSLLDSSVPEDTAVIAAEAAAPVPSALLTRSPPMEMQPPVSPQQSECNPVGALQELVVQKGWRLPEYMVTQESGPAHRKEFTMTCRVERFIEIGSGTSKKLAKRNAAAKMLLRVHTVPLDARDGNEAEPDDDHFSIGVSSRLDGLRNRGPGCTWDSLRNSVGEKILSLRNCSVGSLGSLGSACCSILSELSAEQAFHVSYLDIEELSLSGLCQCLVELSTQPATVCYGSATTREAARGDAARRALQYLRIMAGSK
Experiment: co-IP; membrane fractions of 7 DIV rat cortical neurons isolated by sequential detergent extraction; IgG control or 2 and 5 ug monoclonal anti-TRBP antibody; immunoblot

binding: binds
Substance: Ago2 (from UniProt Q9QZ81 1-860)
